From article PMC6876774
These are yes or no findings as the source states them, for the method shown. Binding seen in cells or lysates may run through a third protein. Some results given as binding are weak or reduced against the parent protein; the word gives no strength. Tags and fused reporters may be left off the sequences shown.

Amino acid sequences for entries named in this document (tags omitted).
UniProt P21951: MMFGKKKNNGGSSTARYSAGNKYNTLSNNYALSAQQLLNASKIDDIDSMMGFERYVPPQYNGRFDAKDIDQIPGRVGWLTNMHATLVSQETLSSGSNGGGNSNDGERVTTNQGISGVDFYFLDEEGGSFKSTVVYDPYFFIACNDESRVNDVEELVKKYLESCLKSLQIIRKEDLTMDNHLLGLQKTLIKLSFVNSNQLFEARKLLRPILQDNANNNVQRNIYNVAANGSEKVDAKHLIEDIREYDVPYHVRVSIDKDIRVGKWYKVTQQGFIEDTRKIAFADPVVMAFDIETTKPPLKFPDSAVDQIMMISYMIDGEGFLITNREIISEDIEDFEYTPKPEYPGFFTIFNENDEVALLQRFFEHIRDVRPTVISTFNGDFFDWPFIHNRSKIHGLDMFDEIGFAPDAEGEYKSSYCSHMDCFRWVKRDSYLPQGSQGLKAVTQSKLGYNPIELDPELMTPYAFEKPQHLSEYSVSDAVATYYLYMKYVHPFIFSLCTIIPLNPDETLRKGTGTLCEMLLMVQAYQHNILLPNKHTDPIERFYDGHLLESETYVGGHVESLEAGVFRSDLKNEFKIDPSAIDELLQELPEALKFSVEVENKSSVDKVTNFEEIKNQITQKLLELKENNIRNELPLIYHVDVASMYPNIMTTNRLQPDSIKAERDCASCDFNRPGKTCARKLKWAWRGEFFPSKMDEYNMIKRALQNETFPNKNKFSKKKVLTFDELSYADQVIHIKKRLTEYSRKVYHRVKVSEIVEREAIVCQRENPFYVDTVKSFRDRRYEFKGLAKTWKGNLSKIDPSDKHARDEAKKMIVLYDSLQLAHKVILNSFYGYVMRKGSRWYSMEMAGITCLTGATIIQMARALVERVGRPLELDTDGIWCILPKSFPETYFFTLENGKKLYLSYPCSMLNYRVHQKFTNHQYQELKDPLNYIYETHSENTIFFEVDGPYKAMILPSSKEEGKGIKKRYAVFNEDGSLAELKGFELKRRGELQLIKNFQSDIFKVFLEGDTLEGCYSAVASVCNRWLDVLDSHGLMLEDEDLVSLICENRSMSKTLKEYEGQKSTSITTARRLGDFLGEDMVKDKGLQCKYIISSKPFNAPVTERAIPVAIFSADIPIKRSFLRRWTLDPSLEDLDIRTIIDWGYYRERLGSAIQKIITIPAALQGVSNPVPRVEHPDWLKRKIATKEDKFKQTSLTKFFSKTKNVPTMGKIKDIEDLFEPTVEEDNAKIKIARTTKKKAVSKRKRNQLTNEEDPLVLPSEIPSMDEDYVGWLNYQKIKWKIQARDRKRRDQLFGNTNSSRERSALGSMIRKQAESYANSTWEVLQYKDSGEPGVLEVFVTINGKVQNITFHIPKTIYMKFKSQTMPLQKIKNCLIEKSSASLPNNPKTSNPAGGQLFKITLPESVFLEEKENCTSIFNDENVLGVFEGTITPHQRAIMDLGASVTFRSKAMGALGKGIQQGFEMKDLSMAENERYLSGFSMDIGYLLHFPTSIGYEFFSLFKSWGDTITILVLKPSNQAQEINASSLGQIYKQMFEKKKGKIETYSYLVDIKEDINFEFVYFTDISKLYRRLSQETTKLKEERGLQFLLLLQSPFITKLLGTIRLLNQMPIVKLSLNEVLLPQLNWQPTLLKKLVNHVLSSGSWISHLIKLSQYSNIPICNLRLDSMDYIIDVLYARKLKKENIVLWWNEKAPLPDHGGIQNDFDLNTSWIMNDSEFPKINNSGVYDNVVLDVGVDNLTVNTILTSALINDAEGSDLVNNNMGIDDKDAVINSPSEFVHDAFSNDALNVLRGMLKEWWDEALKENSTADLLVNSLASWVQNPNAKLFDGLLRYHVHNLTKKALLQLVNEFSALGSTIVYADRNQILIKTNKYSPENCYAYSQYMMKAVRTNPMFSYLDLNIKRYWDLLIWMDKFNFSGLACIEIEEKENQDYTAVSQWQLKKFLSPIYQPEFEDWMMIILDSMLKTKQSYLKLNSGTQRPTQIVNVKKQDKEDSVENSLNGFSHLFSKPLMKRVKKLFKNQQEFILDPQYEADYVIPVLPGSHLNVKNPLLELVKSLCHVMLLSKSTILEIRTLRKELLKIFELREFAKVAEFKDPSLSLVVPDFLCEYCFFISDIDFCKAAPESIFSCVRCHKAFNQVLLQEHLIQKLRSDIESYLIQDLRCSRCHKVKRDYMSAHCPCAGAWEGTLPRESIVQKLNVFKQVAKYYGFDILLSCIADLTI

Target: HA-tagged Pol2 (catalytic subunit of DNA polymerase epsilon) (budding yeast) (UniProt P21951)
Experiment: co-IP; HA-tagged Pol2 immunoprecipitated from yeast extracts, Flag-tagged Smc5 detected with anti-Flag antibody; DNase added to remove DNA before immunoprecipitation; cells treated with HU or untreated

B1: Flag-tagged Smc5 (subunit of the Smc5/6 complex) (protein, UniProt Q08204 1-1093)
chain: MTSLIDLGRYVERTHHGEDTEPRSKRVKIAKPDLSSFQPGSIIKIRLQDFVTYTLTEFNLSPSLNMIIGPNGSGKSTFVCAVCLGLAGKPEYIGRSKKVEDFIKNGQDVSKIEITLKNSPNVTDIEYIDARDETIKITRIITRSKRRSDYLINDYQVSESVVKTLVAQLNIQLDNLCQFLSQERVEEFARLKSVKLLVETIRSIDASLLDVLDELRELQGNEQSLQKDLDFKKAKIVHLRQESDKLRKSVESLRDFQNKKGEIELHSQLLPYVKVKDHKEKLNIYKEEYERAKANLRAILKDKKPFANTKKTLENQVEELTEKCSLKTDEFLKAKEKINEIFEKLNTIRDEVIKKKNQNEYYRGRTKKLQATIISTKEDFLRSQEILAQTHLPEKSVFEDIDIKRKEIINKEGEIRDLISEIDAKANAINHEMRSIQRQAESKTKSLTTTDKIGILNQDQDLKEVRDAVLMVREHPEMKDKILEPPIMTVSAINAQFAAYLAQCVDYNTSKALTVVDSDSYKLFANPILDKFKVNLRELSSADTTPPVPAETVRDLGFEGYLSDFITGDKRVMKMLCQTSKIHTIPVSRRELTPAQIKKLITPRPNGKILFKRIIHGNRLVDIKQSAYGSKQVFPTDVSIKQTNFYQGSIMSNEQKIRIENEIINLKNEYNDRKSTLDALSNQKSGYRHELSELASKNDDINREAHQLNEIRKKYTMRKSTIETLREKLDQLKREARKDVSQKIKDIDDQIQQLLLKQRHLLSKMASSMKSLKNCQKELISTQILQFEAQNMDVSMNDVIGFFNEREADLKSQYEDKKKFVKEMRDTPEFQSWMREIRSYDQDTKEKLNKVAEKYEEEGNFNLSFVQDVLDKLESEIAMVNHDESAVTILDQVTAELRELEHTVPQQSKDLETIKAKLKEDHAVLEPKLDDIVSKISARFARLFNNVGSAGAVRLEKPKDYAEWKIEIMVKFRDNAPLKKLDSHTQSGGERAVSTVLYMIALQEFTSAPFRVVDEINQGMDSRNERIVHKAMVENACAENTSQYFLITPKLLTGLHYHEKMRIHCVMAGSWIPNPSEDPKMIHFGETSNYSFD
  binding: binds
